Data from patent publication US10654807B2, “Toll-like receptor 8 agonists” (The University Of Kansas, priority 2013, dated 2020).
“Also recorded” adds a separate entry of the source.

Tested on: human peripheral blood mononuclear cells
Test: cytokine/chemokine induction in human PBMCs (multiplexed bead array immunoassays)
Assay type: cell-based
Settings: for IFN-α induction / IL-12 and IL-18 induction: ex vivo human blood/PBMC models, FIGS. 7A-7C
[1] = human PBMCs, FIG. 9, value taken as 100 percent

For `CCCCc1cc2c(o1)c(N)nc1ccccc12` [Compound A8d, 2-butylfuro[2,3-c]quinolin-4-amine], the “induction of G-CSF, GRO, MIP-1α and MIP-1β” value (41-analyte multiplexed assay, human PBMCs, FIG. 9) was “induced”, the IFN-α induction was “bereft of IFN-α-inducing properties; also recorded: absence of IFN-α” and the “IL-12 and IL-18 induction” value was “induced IL-12 and IL-18”. For the same compound, the IFN-α induction (listed as 3) was “without IFN-α inducing properties”, the “IL-12 and IL-18 induction” value (listed as 3) was “IL-12 and IL-18 induction profiles” and the “maximal response G-CSF” value [1] was 622 pg/mL. The “maximal response GRO” value [1] was 515 pg/mL, the “maximal response MIP-1α” value [1] was 10780 pg/mL and the “maximal response MIP-1β” value [1] was 10374 pg/mL.
